For at least one compound, name, drawing or mass did not settle the structure.
System: hepcidin expression
Assay: Liver hepcidin expression in mice after single oral dose, real-time RT-PCR
Assay type: in vivo
Conditions: single oral dose 250 mg/kg, liver mRNA after six hours
Procedure: Hepcidin expression in the mice treated with compounds 4 and 12 was compared to hepcidin expression in mice treated with compound A. In this experiment, mice were treated orally with a single dose of test compound. After six hours, livers were removed from euthanized animals and RNA extracted. Hepcidin mRNA levels were determined by real-time RT-PCR as described above.

Compound: COc1cc(Nc2nccc(Nc3cccnc3-c3ccccn3)n2)cc(OC)c1OC [Compound 12, N^4-(2,2′-bipyridin-3-yl)-N^2-(3,4,5-trimethoxyphenyl)pyrimidine-2,4-diamine]
- hepcidin expression in mice compared to compound A: inhibit hepcidin expression to a greater extent than compound A

— patent publication US10202356B2, “JAK2 and ALK2 inhibitors and methods for their use” (Tolero Pharmaceuticals, Inc., priority 2013, dated 2019)
